# Source: PubChem BioAssay AID1224830 (NIAID, 2016)
# Purpose: 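Host factors that control LPS-induced TNF expression in human macrophages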 (primary screen)
# Cell system: human THP-1 monocytic leukaemia cells, TNF dual-luciferase reporter clone, PMA-differentiated to macrophage-like cells
# Knock-down reagent: siRNA pool against human genes, 50 nM
# Time to read-out: LPS for 4 h, given about 3 days after siRNA transfection
# Treatment: bacterial LPS (TLR4 ligand), 10 ng/ml
# Measurement: 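TNF firefly reporter luminescence divided by renilla, normalised to the plate median, then turned into a robust z-score for each replicate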
# Scale: TNF reporter robust z-score: higher = stronger TNF reporter response to LPS
# Call rule: 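Each well counts as active if its z-score is over 2.8 or under -1.5; controls are left without a call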
# Here is one part, drawn at random, of about 18,000 deposited reagents. Of all reagents, about 2,900 (16%) got an active call. 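Calls are made per well; low scores hint the gene aids the LPS response, high scores that it dampens it.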 Repeated entries: four replicate wells of each siRNA pool.
Target gene,TNF reporter robust z-score,activity call
IL36B (interleukin 36 beta),-1.31,inactive
IL36B (interleukin 36 beta),-1.49,inactive
IL36B (interleukin 36 beta),-0.44,inactive
IL36B (interleukin 36 beta),-0.04,inactive
GOLGA6L9 (golgin A6 family like 9),,inactive
GOLGA6L9 (golgin A6 family like 9),-0.13,inactive
GOLGA6L9 (golgin A6 family like 9),-0.33,inactive
GOLGA6L9 (golgin A6 family like 9),-0.41,inactive
GOLGA6L9 (golgin A6 family like 9),-0.16,inactive
ST18 (ST18 C2H2C-type zinc finger transcription factor),-0.53,inactive
ST18 (ST18 C2H2C-type zinc finger transcription factor),0.06,inactive
ST18 (ST18 C2H2C-type zinc finger transcription factor),-0.59,inactive
ST18 (ST18 C2H2C-type zinc finger transcription factor),0.54,inactive
SLC38A2,-0.03,inactive
SLC38A2,0.34,inactive
SLC38A2,1.5,inactive
SLC38A2,2.33,inactive
RHOBTB3 (Rho related BTB domain containing 3),-0.42,inactive
RHOBTB3 (Rho related BTB domain containing 3),-0.53,inactive
RHOBTB3 (Rho related BTB domain containing 3),0.41,inactive
RHOBTB3 (Rho related BTB domain containing 3),0.7,inactive
CLSPN (claspin),4.35,active
CLSPN (claspin),2.1,inactive
CLSPN (claspin),1.15,inactive
CLSPN (claspin),2.49,inactive
SERPINA7 (serpin family A member 7),0.09,inactive
SERPINA7 (serpin family A member 7),0.64,inactive
SERPINA7 (serpin family A member 7),-0.8,inactive
SERPINA7 (serpin family A member 7),-0.27,inactive
NUP210L (nucleoporin 210 like),-1.24,inactive
NUP210L (nucleoporin 210 like),-0.67,inactive
NUP210L (nucleoporin 210 like),-1.46,inactive
NUP210L (nucleoporin 210 like),-0.4,inactive
"MSMP (microseminoprotein, prostate associated)",-0.88,inactive
"MSMP (microseminoprotein, prostate associated)",0.25,inactive
"MSMP (microseminoprotein, prostate associated)",-1.14,inactive
"MSMP (microseminoprotein, prostate associated)",-0.74,inactive
TMEM105 (TMEM105 long non-coding RNA),-0.62,inactive
TMEM105 (TMEM105 long non-coding RNA),-1.08,inactive
TMEM105 (TMEM105 long non-coding RNA),-0.79,inactive
TMEM105 (TMEM105 long non-coding RNA),-0.78,inactive
USP4 (ubiquitin specific peptidase 4),0.18,inactive
USP4 (ubiquitin specific peptidase 4),2.42,inactive
USP4 (ubiquitin specific peptidase 4),0.53,inactive
MINPP1 (multiple inositol-polyphosphate phosphatase 1),-1.25,inactive
MINPP1 (multiple inositol-polyphosphate phosphatase 1),0.16,inactive
MINPP1 (multiple inositol-polyphosphate phosphatase 1),-0.8,inactive
MINPP1 (multiple inositol-polyphosphate phosphatase 1),0.39,inactive

6 entries from above, ordered by “TNF reporter robust z-score”, low to high:
Target gene,TNF reporter robust z-score,activity call
ST18 (ST18 C2H2C-type zinc finger transcription factor),-0.53,inactive
GOLGA6L9 (golgin A6 family like 9),-0.41,inactive
GOLGA6L9 (golgin A6 family like 9),-0.33,inactive
GOLGA6L9 (golgin A6 family like 9),-0.16,inactive
GOLGA6L9 (golgin A6 family like 9),-0.13,inactive
ST18 (ST18 C2H2C-type zinc finger transcription factor),0.06,inactive
